Our source for the binding values is paper PMC8668916.

Protein sequences, listed by entry. Tags and fused reporters are not part of them.
UniProt O94759: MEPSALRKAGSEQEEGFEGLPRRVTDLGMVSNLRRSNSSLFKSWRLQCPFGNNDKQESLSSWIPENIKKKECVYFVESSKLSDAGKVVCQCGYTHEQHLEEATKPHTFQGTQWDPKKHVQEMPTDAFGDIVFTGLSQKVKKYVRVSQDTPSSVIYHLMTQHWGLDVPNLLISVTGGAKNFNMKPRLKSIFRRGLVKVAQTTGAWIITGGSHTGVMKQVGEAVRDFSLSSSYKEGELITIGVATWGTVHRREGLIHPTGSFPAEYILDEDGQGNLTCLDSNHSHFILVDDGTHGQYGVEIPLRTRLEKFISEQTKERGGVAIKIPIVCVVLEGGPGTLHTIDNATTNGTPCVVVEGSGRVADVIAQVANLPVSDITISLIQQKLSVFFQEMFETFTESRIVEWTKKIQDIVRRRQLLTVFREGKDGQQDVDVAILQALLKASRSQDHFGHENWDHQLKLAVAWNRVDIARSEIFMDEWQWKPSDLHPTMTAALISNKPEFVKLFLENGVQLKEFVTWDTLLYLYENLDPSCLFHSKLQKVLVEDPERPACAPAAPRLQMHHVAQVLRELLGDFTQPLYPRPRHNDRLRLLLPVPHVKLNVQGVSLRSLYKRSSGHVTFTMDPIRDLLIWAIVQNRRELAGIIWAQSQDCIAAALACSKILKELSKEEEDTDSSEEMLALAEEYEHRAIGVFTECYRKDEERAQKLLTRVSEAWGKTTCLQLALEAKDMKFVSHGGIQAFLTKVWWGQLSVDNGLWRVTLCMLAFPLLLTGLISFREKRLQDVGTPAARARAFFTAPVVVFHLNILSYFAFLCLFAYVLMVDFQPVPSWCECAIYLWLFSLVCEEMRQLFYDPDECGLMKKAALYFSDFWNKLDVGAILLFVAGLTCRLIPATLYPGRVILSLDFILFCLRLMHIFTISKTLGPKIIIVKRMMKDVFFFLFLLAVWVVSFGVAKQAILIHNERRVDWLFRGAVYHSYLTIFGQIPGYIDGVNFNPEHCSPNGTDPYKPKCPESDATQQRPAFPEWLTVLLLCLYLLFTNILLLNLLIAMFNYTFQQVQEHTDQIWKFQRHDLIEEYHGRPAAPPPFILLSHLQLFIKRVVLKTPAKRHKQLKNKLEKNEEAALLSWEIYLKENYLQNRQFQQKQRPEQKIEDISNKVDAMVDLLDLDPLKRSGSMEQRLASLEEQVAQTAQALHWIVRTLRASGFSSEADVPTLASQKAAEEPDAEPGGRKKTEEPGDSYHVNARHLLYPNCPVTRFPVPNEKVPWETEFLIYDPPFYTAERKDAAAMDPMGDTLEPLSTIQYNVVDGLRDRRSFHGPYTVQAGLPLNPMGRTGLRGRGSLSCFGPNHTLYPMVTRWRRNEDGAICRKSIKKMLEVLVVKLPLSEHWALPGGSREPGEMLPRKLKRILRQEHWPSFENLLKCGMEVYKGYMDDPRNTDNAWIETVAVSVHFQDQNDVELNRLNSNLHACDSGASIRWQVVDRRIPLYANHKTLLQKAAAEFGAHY
UniProt P19474: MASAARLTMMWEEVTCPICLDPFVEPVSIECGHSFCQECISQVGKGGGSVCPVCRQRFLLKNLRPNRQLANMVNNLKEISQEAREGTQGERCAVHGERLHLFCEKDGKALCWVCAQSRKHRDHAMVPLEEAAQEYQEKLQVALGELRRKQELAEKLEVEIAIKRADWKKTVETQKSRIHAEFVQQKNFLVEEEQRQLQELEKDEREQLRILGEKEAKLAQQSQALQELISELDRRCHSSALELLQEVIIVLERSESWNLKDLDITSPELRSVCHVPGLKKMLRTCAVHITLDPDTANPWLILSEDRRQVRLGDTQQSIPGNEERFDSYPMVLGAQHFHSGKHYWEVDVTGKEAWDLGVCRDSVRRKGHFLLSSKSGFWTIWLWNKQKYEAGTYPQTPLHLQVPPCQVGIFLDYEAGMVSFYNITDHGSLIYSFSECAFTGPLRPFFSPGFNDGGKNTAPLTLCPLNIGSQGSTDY

The experiment concerns the target TRPM2 (Transient receptor potential cation channel subfamily M member 2) (human (endogenous in THP-1)) (UniProt O94759). Put plainly: co-IP; co-immunoprecipitation in THP-1 lysates, TRPM2 antibodies used for IP, TRIM21 detected by Western blot; also in shNC and shAS (lncTRPM2-AS-silenced) lysates, where silencing gave stronger binding. For orientation: Immunoblotting shows a protein as a band on a membrane.

Results are given in words; binding and its absence hold for the method and conditions named. Binding seen in cells or lysates may run through a third protein. Some entries that bind do so weakly or less than the wild type.

On to “E3 ubiquitin ligase TRIM21 (from UniProt P19474 1-475) (enzyme)”, for which the binding entry was “binds”.
